Source: the supplement of paper PMC8426693
The list shows a part of the results.

How the values were obtained:
Assay in all cases: NMR binding call after quantification (hit when 2 of 3 NMR criteria are met) (binary (1 = binding, 0 = not binding)); higher = binding
Conditions in all cases: RNA concentration 10 µM; fragment concentration 200 µM; 293 K
SARS-CoV-2 5'-UTR RNA = test system: SARS-CoV-2 5'-UTR RNA
SARS-CoV-2 5_SL1 RNA = test system: SARS-CoV-2 5_SL1 RNA
SARS-CoV-2 5_SL1234 RNA = test system: SARS-CoV-2 5_SL1234 RNA
SARS-CoV-2 5_SL2+3 RNA = test system: SARS-CoV-2 5_SL2+3 RNA
SARS-CoV-2 5_SL4 RNA = test system: SARS-CoV-2 5_SL4 RNA
SARS-CoV-2 5_SL5 RNA = test system: SARS-CoV-2 5_SL5 RNA
SARS-CoV-2 5_SL5a RNA = test system: SARS-CoV-2 5_SL5a RNA
SARS-CoV-2 5_SL5b+c RNA = test system: SARS-CoV-2 5_SL5b+c RNA
SARS-CoV-2 5_SL5stem RNA = test system: SARS-CoV-2 5_SL5stem RNA
SARS-CoV-2 5_SL6 RNA = test system: SARS-CoV-2 5_SL6 RNA

Measured: NMR binding call

COCC(=O)Nc1ccccc1C(N)=O
0: all assays above

OC1CCN(Cc2ccsc2)CC1
0: all assays above

O=C(CN1CCCC1)Nc1cccc(Cl)c1
0: all assays above

CCN(CCO)c1ccc(N)cc1
0: all assays above

CC(C)CNC(=O)c1ccc2ccccc2c1
0: all assays above

CC(O)CCn1cccn1 (stereo not given)
0: all assays above

CCNC(=O)c1ccc(N(C)C)c(F)c1
0: all assays above

CC(=O)N1CCCNCC1
0: all assays above

O=C(COc1ccccc1)Nc1cccc(F)c1
0: all assays above

CCN1CCN(C(=O)NC2CCCCC2)CC1
0: all assays above

CN(C)C(=O)Nc1ccc(S(N)(=O)=O)cc1
0: all assays above

CC1CN(Cc2nnsc2Cl)C(C)CO1 (stereo not given)
0: all assays above

O=C(Nc1ccc2[nH]c(=O)[nH]c2c1)c1ccco1
1: SARS-CoV-2 5'-UTR RNA
0: all other assays above

CC(=O)N1CCC(N)CC1
0: all assays above

CNCc1ccncc1
0: all assays above

O=C(O)c1cccc(NC(=O)c2ccno2)c1
0: all assays above

An excerpt from above in order of length of the SMILES, falling.
O=C(Nc1ccc2[nH]c(=O)[nH]c2c1)c1ccco1
1: SARS-CoV-2 5'-UTR RNA
0: all other assays above

O=C(O)c1cccc(NC(=O)c2ccno2)c1
0: all assays above

CC(=O)N1CCC(N)CC1
0: all assays above
